Data reported in patent US6302119A, “Low odor permanent waving compositions containing a disulfide” (priority 1999, dated 2001).

Experiment: Processing and post-perm odor with water-soluble disulfides

With `CC(C)(CO)[C@@H](O)C(=O)NCCC(=O)NCCSSCCNC(=O)CCNC(=O)[C@H](O)C(C)(C)CO` [pantethine] the “odor reduction results” value was “acceptable results have been obtained”.
